# Binding screen against folded nucleic acids

Source: the ROBIN nucleic acid binder screens (doi:10.1002/anie.202211358).

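Each compound is printed as two spots on a slide made to bind it covalently, so it has no test concentration; the read-out is fluorescence of the bound, labelled oligonucleotide. The data file lists only calls. An earlier report of the laboratory on the PreQ1, TPP and SAM-II riboswitches (doi:10.1038/s41467-019-09493-3) used 1 µM RNA for 2 h and required a mean Z-score above 3 (spot signal-to-noise against the whole library), a score well above that on a control array, and duplicate spots agreeing (coefficient of variation under 100); it then also set aside compounds that hit other targets, which this list keeps. The cut-offs behind this list may differ. The calls come from the array alone, and fixing a compound to the slide can hide its binding.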 Key: hit = hit, no hit = tested without a hit. This is an unselected part of the compounds tested. A dash means that no call is listed here.

Targets, with sequences 5′ to 3′:
PreQ1: PreQ1 riboswitch RNA pseudoknot, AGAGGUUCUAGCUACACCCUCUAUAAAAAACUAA. From B. subtilis. Hit rate about 0.7% of about 24,000 compounds.
TPP: TPP riboswitch RNA three-way junction, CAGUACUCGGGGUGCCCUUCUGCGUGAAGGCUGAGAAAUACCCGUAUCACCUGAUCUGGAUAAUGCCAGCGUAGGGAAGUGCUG. Hit rate about 0.7% of about 24,000 compounds.
SAM-II: SAM-II riboswitch RNA pseudoknot, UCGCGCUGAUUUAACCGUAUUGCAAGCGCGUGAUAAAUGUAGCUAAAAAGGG. Hit rate about 1% of about 21,000 compounds.

compound,PreQ1,TPP,SAM-II
Nc1c(C(=O)Nc2ccc(F)cc2)nnn1Cc1cccc(Br)c1,no hit,no hit,no hit
CC(=O)NCC(O)c1ccc([N+](=O)[O-])cc1 (stereo not given),no hit,no hit,no hit
CCC(O)c1nc2ccccc2n1CCCOc1ccc(C)cc1C (stereo not given),no hit,no hit,-
Fc1ccc(Nc2c3c(nc4ccccc24)CCC3)cc1,no hit,no hit,no hit
CCc1ccc(NC2CC(=O)N(c3ccc(OC)cc3)C2=O)cc1 (stereo not given),no hit,no hit,no hit
CNc1oc(-c2ccc(S(=O)(=O)N3CCCCCC3)cc2)nc1C#N,no hit,no hit,-
COCCNc1c2c(nc3c(-c4ccccc4)c(C)nn13)CCC2,no hit,no hit,-
N#CC1=C(N)Oc2[nH]nc(C(F)(F)F)c2C1c1ccc(Br)cc1 (stereo not given),no hit,no hit,no hit
Cc1cccc(OCC(=O)N[C@H]2CC[C@H]2NC2CCOCC2)c1C,no hit,no hit,no hit
O=C(CCc1cc2n(n1)CCNC2)NCc1ccc(-n2cncn2)cc1,no hit,no hit,no hit
CCOC(=O)c1cnc2ccc(C(=O)OC)cc2c1NCC(C)O (stereo not given),no hit,no hit,no hit
CCOC(=O)C1CCN(c2c(NCc3ccc(N(C)C)cc3)c(=O)c2=O)CC1,no hit,no hit,no hit
COc1ccc(C(=O)N2CCCC2=O)cc1,no hit,no hit,no hit
COc1ccc2c(c1)CCN(C(=O)c1ccc(N)nc1)CC2,no hit,no hit,no hit
CSc1ccc(NC(=O)N2CCCC3(CCNC3)C2)cc1 (stereo not given),no hit,no hit,no hit
CN1c2ccccc2C(=O)N2CCc3c([nH]c4ccccc34)C21 (stereo not given),no hit,no hit,no hit
COc1ccc(CNC(=O)c2sc3nc(-c4ccc(OC)cc4)ccc3c2N)cc1,no hit,no hit,no hit
Cn1c(=O)n(C)c2cc(C3C(C#N)=C(N)Oc4c3ccc3ccccc43)ccc21 (stereo not given),no hit,no hit,no hit
C=CCNc1oc(-c2ccc(S(=O)(=O)N3CCCCCC3)cc2)nc1C#N,no hit,no hit,-
COC(=O)c1sc2nc3ccccn3c(=O)c2c1N,no hit,no hit,no hit
Clc1ccc(-c2ccc(CNCCCN3CCOCC3)o2)cc1,no hit,no hit,-
CCOC(=O)c1ccc(NS(=O)(=O)c2cc(Br)cnc2N)cc1,no hit,no hit,-
Cc1cc2c(s1)=Nc1ccccc1NC=2N1CCN(C)CC1,no hit,no hit,no hit
CCc1nccn1CCC(=O)N1C[C@H](CO)C[C@H](CN(C)C)C1,no hit,no hit,no hit
Clc1cccc(-c2ccc(C3NCCc4[nH]cnc43)o2)c1Cl (stereo not given),no hit,no hit,no hit
O=C1N(CC2COCCO2)c2ccccc2NC12CCNCC2 (stereo not given),no hit,no hit,no hit
CCc1nc2nc(C)cc(Nc3ccccc3OC)n2n1,no hit,no hit,no hit
CCCc1nc(-c2cc3ccc(C)cc3nc2NCc2ccccn2)no1,no hit,no hit,-
Cc1cccc(CSc2nnc(CCCCCN)o2)c1,no hit,no hit,no hit
COc1cc(CNCCc2ccccc2)ccc1O,no hit,no hit,no hit
CCn1cc(C(=O)N2CC[C@](O)(CC)[C@H](O)C2)cn1,no hit,no hit,no hit
COc1cc(C)c(C=CC(C)=CC=CC(C)=CC(=O)O)c(C)c1C,no hit,no hit,no hit
COc1ccc(NC(C)(C)C(=O)NCC2CCCN(C)C2)cc1 (stereo not given),no hit,no hit,no hit
Cc1n[nH]c(C)c1C(N)C(=O)N1CCN(c2ncccn2)CC1 (stereo not given),no hit,no hit,no hit
O=C(Nc1ccc([N+](=O)[O-])cc1Cl)c1cc(Cl)ccc1O,no hit,no hit,no hit
C=CCNc1ccccc1C(=O)NC(C(=O)O)c1c(C)n[nH]c1C (stereo not given),no hit,no hit,no hit
Cc1nc(=O)c2cc(CN(C)c3ccc(C(=O)N[C@@H](CCC(=O)O)C(=O)O)s3)ccc2[nH]1,no hit,no hit,no hit
Cc1sc2nc(CCN)nc(N3CC=CCC3)c2c1C,no hit,no hit,no hit
CCn1c(C2CCCNC2)nn(CCCc2ccccc2)c1=O (stereo not given),no hit,no hit,no hit
COc1cccc(CNC(=O)c2nn(-c3ccccc3F)nc2CO)c1,no hit,no hit,-
Nc1ccc(C(=O)OCc2nc3ccccc3[nH]2)cc1,no hit,no hit,no hit
COc1ccc(CNCCc2cccc(Cl)c2)cc1C,no hit,no hit,no hit
Cc1ccc(NC2CC(C)N(C(=O)c3cccc([N+](=O)[O-])c3)c3ccc(C)cc32)cc1 (stereo not given),no hit,no hit,no hit
O=C(NCc1nnc2ccccn12)c1ccc(C2CCCNC2)cc1 (stereo not given),no hit,no hit,no hit
N#CC1=C(N)Oc2c(oc(CO)cc2=O)C1c1c(F)cccc1F (stereo not given),no hit,no hit,no hit
CCN(CC)c1ccc(NCc2ccc3c(c2)OCO3)cc1,no hit,no hit,no hit
CCOC(=O)c1cnc2ccccc2c1Nc1cccc(C(=O)O)c1,no hit,no hit,no hit
Cc1cc(C)c(C#N)c(Sc2nc(C)c([N+](=O)[O-])c(C)c2C#N)n1,no hit,no hit,no hit
COc1ccc(CNc2nc(NCCCO)c3ccccc3n2)cc1,no hit,no hit,no hit
O=C1OC(Nc2ccc(S(=O)(=O)Nc3ccccn3)cc2)c2ccccc21 (stereo not given),no hit,no hit,no hit
Cc1ccccc1CN1CCN(c2cc(N3CCCC3)nc(N)n2)CC1,no hit,no hit,no hit
Cn1c(=O)c2c(ncn2CC(O)CNc2cccc(Cl)c2)n(C)c1=O (stereo not given),no hit,no hit,no hit